# Data as given in the supplement of paper PMC12578635.
# The other results are listed elsewhere or left out. No stated cut-off is given here; in the data, active = 150% or more and inactive = the rest. Repeats are few or missing, and single values can be far off.
# Test system: Staphylococcus aureus JE2-lux inside RAW 264.7 macrophages
# Assay: intracellular bacterial bioluminescence relative to DMSO vehicle; higher = higher intracellular bacterial metabolic activity
# Conditions: 10 µM; treatment time 4 h; gentamicin 50 µg/ml
row,Structure (SMILES),intracellular bacterial bioluminescence
1,CN1C(=O)/C(=N\NC(=O)CCCC(=O)N/N=C2/C(=O)N(C)c3ccccc32)c2ccccc21,inactive: 90%
2,CSc1cccc(NC(=O)CN2N=NC3C(=O)N(c4ccc(F)c(F)c4)C(=O)C32)c1 (stereo unspecified),inactive: 113%
3,CN(C)CCCNS(=O)(=O)c1ccc2c(c1)NC(=O)C(C)(C)O2,inactive: 108%
4,COc1ccc(NCc2cc3cc(OC)c(OC)cc3n(CC(=O)Nc3cccc(F)c3)c2=O)cc1,inactive: 88.5%
5,O=C(CSc1ncnc2c1oc1ccccc12)Nc1nccs1,inactive: 72.8%
6,O=C(CSc1nnc2[nH]c(=O)c(-c3ccc(Cl)cc3)nn12)c1ccc([N+](=O)[O-])cc1,inactive: 74.2%
7,CC(=O)Nc1ccc(S(=O)(=O)NCCc2cn3ccc(C)cc3n2)cc1,inactive: 101%
8,CCC(=O)Nc1ccc(NC(=O)c2cc(OC)c(OC)c(OC)c2)cn1,inactive: 125%
9,O=C(Nc1nccs1)c1cc2c(=O)n3ccccc3nc2s1,inactive: 113%
10,COc1cccc(NC(=O)N2C3CCCC2CC(NC(C)=O)C3)c1 (stereo unspecified),inactive: 102%
11,Cc1ccc(S(=O)(=O)Nc2ccccc2C(=O)Nc2sccc2C(N)=O)cc1,inactive: 118%
12,Cc1ccc2nc3c(cc(S(=O)(=O)c4ccc(Cl)cc4)c(=N)n3C3CCCC3)c(=O)n2c1,inactive: 126%
13,CC(=O)Nc1cc(-c2ccccc2)nn1-c1nc(-c2ccccc2)cs1,inactive: 82.2%
14,Cc1ccc2cc(CCNC(=O)COc3ccc4ccccc4c3)c(=O)[nH]c2c1,inactive: 87.2%
15,O=C(Cc1ccc(F)cc1)Nc1nnc(-c2ccccc2)[nH]1,inactive: 110%
16,C=CCNC(=O)Cn1c(C)c(Cc2ccccc2)c(=O)n2nc(-c3ccc(C)cc3)nc12,inactive: 96.4%
17,O=C(c1ccccc1F)N1CCc2cc(-c3csc(-c4cccnc4)n3)ccc21,inactive: 23.6%
18,COc1cc2ccccc2cc1C(=O)Nc1nnc(-c2ccncc2)o1,inactive: 84.7%
19,Cc1ccc2c(c1)/C(=N\NC(=S)Nc1cccc(O)c1)C(=O)N2,inactive: 102%
20,CC1C(c2ccc(F)cc2)=NOC1C(=O)NC(c1ccccc1)c1ccnn1C (stereo unspecified),inactive: 113%
21,Cc1ccc(S(=O)(=O)N(C)c2cncc(C(=O)NC(C)C)c2)cc1,inactive: 115%
22,Cc1nc2ccccc2n1C(=O)c1ccccc1C(=O)O,inactive: 108%
23,Cc1c(C)n(-c2ccccc2)c2nc(C(=O)NCCCN3CCCC3=O)nc(N3CCCCC3)c12,inactive: 38.7%

row,Structure (SMILES),intracellular bacterial bioluminescence
1,CCOCCn1/c(=N\C(=O)c2cccc(S(C)(=O)=O)c2)sc2cccc(F)c21,inactive: 103%
2,Cc1nn(C)c(C)c1S(=O)(=O)N1CCc2c(c(C(=O)N3CCOCC3)nn2C)C1,inactive: 83.2%
3,COc1cccc(-c2noc(NC3CCCCC3)n2)c1,inactive: 87.8%
4,Cc1cc(C)c2cc(CNCC3CCCO3)c3nn(C)c(=O)n3c2c1 (stereo unspecified),inactive: 48.8%
5,CCCCN(C)S(=O)(=O)c1ccc(C(=O)Nc2ccc3ccccc3c2)cc1,inactive: 108%
6,CCOC(=O)N1CCN(C(=O)CSCC(=O)/N=c2\sc3cc(OC)ccc3n2C)CC1,inactive: 58.5%
7,Cc1ccc2c(Cl)c(C(=O)Nc3cc(-c4ccc(F)cc4)no3)sc2c1,inactive: 112%
8,O=C(O)c1cccc(N2C(=O)CC(Nc3ccc(F)cc3)C2=O)c1 (stereo unspecified),inactive: 113%
9,COc1ccc(-c2cc(C(=O)Nc3cc(C)n(C)n3)ccc2-n2ccnc2)cc1,inactive: 108%
10,COCCCn1c(=N)c(C(=O)NC(C)c2ccccc2)cc2c(=O)n3cccc(C)c3nc21 (stereo unspecified),inactive: 134%
11,COc1ccc2oc(=O)c(C(=O)NC3=C(C#N)CCC3)cc2c1,inactive: 128%
12,Oc1nc(SCc2cc3c(cc2Cl)OCO3)nc2[nH]cnc12,inactive: 113%
13,CCS(=O)(=O)c1ccccc1C(=O)N1CCN(c2nc3ccc([N+](=O)[O-])cc3s2)CC1,inactive: 81.7%
14,CCc1ccc(NC(=O)c2cnn3c(=O)cc(C)[nH]c23)cc1,inactive: 89.8%
15,CC(=O)Nc1ccc2nc(Nc3nc4ccc(C(C)C)cc4s3)sc2c1,inactive: 58.9%
16,O=C(CSc1ncnc2ccccc12)Nc1cccc(C(F)(F)F)c1,inactive: 1.91%
17,CCOC(=O)c1c(NC(=O)C(C)Sc2nc(=O)n3cc(C)ccc3n2)sc2c1CCCCC2 (stereo unspecified),inactive: 64.2%
18,C=CCN1C(=O)c2oc3ccccc3c(=O)c2C1c1ccc(O)c(OC)c1 (stereo unspecified),inactive: 121%
19,COCCCNC(=O)Cn1c(C)cc(=O)n2nc(-c3ccccc3Cl)nc12,inactive: 111%
20,O=C(Nc1ccccc1F)C(=O)c1c[nH]c2ccccc12,inactive: 124%
21,O=C(Nc1ccon1)C1CCN(S(=O)(=O)c2cccs2)CC1,inactive: 84.4%
22,O=C(Nc1ccc2c(c1)CCC2)C1CCN(C(=O)NC2CCCCC2)CC1,inactive: 98.5%
23,NS(=O)(=O)c1ccc(CNC(=O)c2cccn3c(-c4ccc(F)cc4)nnc23)cc1,inactive: 87.7%

row,Structure (SMILES),intracellular bacterial bioluminescence
1,CCCc1cc(C(=O)N2CCCC2c2ccc(C)cc2)no1 (stereo unspecified),inactive: 88.3%
2,c1ccc2c(c1)c(N1CCN(Cc3ccc4c(c3)OCO4)CC1)nn1nnnc21,inactive: 96%
3,COC(=O)c1ccc2nc(NC(=O)c3ccc(Br)s3)sc2c1,inactive: 117%
4,Cn1ncc2c1CCc1sc(NC(=O)CC3CCS(=O)(=O)C3)nc1-2 (stereo unspecified),inactive: 103%
5,Cc1ccc(NC(=S)NC2CC3CCC(C2)N3Cc2ccccc2)cc1C (stereo unspecified),inactive: 102%
6,c1csc(CCNc2nn3cnnc3c3ccccc23)c1,inactive: 110%
7,NC(=O)Cn1cnc2c(sc3ncccc32)c1=O,inactive: 105%
8,CCOc1ccc2[nH]c(C(=O)NC(c3ccccc3)c3cccnc3)c(C)c2c1 (stereo unspecified),inactive: 85.8%
9,Cc1cccn2c(=O)nc(SCC(=O)Nc3ccccc3F)nc12,inactive: 73.3%
10,Cc1nn2c(=O)/c(=C\c3cccnc3)sc2nc1=O,inactive: 84.3%
11,O=C(CCN1C(=O)c2ccccc2S1(=O)=O)Nc1ccc(F)c([N+](=O)[O-])c1,inactive: 5.15%
12,Cc1ccc(C(=O)CSc2nnc3cc(C)c4ccccc4n23)s1,inactive: 80.8%
13,COc1ccc(OC)c(NC(=O)Cn2c(=O)n(C(C)C)c3ncccc32)c1,inactive: 108%
14,O=C(CCC1CCCC1)N1CCN(c2ncnc3c2nnn3-c2ccc(F)cc2)CC1,inactive: 86.5%
15,COc1cc(/C=N/NC(=O)CNC(=O)c2cccc3ccccc23)cc(OC)c1OC,inactive: 81.4%
16,COc1cc(OC)cc(C(=O)N2CCN(c3nc4ccccc4cc3-c3noc(C)n3)CC2)c1,inactive: 79.4%
17,Cc1nc(-n2nc(C)c(CC(=O)N3CCCCC3)c2O)sc1C,inactive: 91.2%
18,COc1cccc2cc(C(N)=O)/c(=N\c3ccc(O)cc3)oc12,active: 154%
19,Cc1c(Cl)cccc1N1CCCn2c1nc1c2c(=O)n(CC(=O)O)c(=O)n1C,inactive: 88.7%
20,COc1ccc([N+](=O)[O-])cc1NC(=O)CSc1ccc(C)cc1,inactive: 65.9%
21,COc1ccc2[nH]c3nc(SCC(=O)Nc4ccccc4Cl)nnc3c2c1,inactive: 120%
22,CSc1ccc(NC(=O)NCCNc2nc3cc(C)c(C)cc3cc2C#N)cc1,inactive: 127%
23,CCn1ncc(C2=NOC(C(=O)NCc3cccnc3)C2)c1C (stereo unspecified),inactive: 107%

# Look-ups from the results shown.
# Value for COc1ccc(NCc2cc3cc(OC)c(OC)cc3n(CC(=O)Nc3cccc(F)c3)c2=O)cc1 under intracellular bacterial bioluminescence: inactive: 88.5%
# Value for O=C(Nc1ccc2c(c1)CCC2)C1CCN(C(=O)NC2CCCCC2)CC1 under intracellular bacterial bioluminescence: inactive: 98.5%
# Value for Cc1cc(C)c2cc(CNCC3CCCO3)c3nn(C)c(=O)n3c2c1 (stereo unspecified) under intracellular bacterial bioluminescence: inactive: 48.8%
# Value for CCn1ncc(C2=NOC(C(=O)NCc3cccnc3)C2)c1C (stereo unspecified) under intracellular bacterial bioluminescence: inactive: 107%

# Additional entries:

row,Structure (SMILES),intracellular bacterial bioluminescence
1,Cc1ncc(C(=O)NC(c2ccccc2)c2ccnn2C)c(C)n1 (stereo unspecified),inactive: 121%
2,O=C(CSc1c[nH]c2ccccc12)NCc1ccccc1,inactive: 59.8%
3,Cc1ccc(NC(=O)CSc2c[nH]c3ccccc23)c(C)c1,inactive: 101%
4,COc1cc(Cl)c(C)cc1NC(=O)CSc1nc2c(-c3ccccc3)csc2c(=O)n1C,inactive: 109%
5,Cc1nc2ccccc2cc1C(=O)NCc1ccccn1,inactive: 77.9%
6,O=C(NCc1cccnc1)C(=O)c1cn(CC(=O)N2CCCCC2)c2ccccc12,inactive: 130%
7,CCS(=O)(=O)c1ccc(C(=O)Nc2nc3ccc(Br)cc3s2)cc1,inactive: 106%
8,CNc1nc2c(c(=O)n(C)c(=O)n2C)n1CCSc1nc2ccccc2s1,inactive: 93.3%
9,COc1c(Sc2ccc([N+](=O)[O-])cc2)c(C)nn1-c1ccccc1,inactive: 82.9%
10,COc1ccc(-c2ocnc2C(=O)NCCc2cccc(F)c2)cc1OC,inactive: 55%
11,O=C(Cn1c(CN2CCCCC2)nc2ccccc21)N1CCOCC1,inactive: 120%
12,CC(=O)Nc1ccc(Nc2c3c(c(C#N)c4nc5ccccc5n24)CCCC3)cc1,inactive: 73.8%
13,CCOC(=O)c1c(SCC(=O)Nc2cc(C(F)(F)F)cc(C(F)(F)F)c2)nc(=O)[nH]c1C,inactive: 98.7%
14,CCS(=O)(=O)c1cccc(C(=O)Nc2nc3c(F)cc(F)cc3s2)c1,inactive: 102%
15,O=C(COc1cccc2c1CCN(Cc1ccccc1)C2=O)N1CCCC1,inactive: 79.4%
16,Cc1csc(N2C(=N)SC(c3ccccc3)C2=O)n1 (stereo unspecified),inactive: 103%
17,c1ccc(-c2csc3ncnc(Sc4ccc5c(c4)OCCO5)c23)cc1,inactive: 126%
18,O=C(CCC(=O)NC1CCCCC1)Nc1noc2ccccc12,inactive: 93.5%
19,O=C(Oc1c(CN2CCOCC2)cc(Cl)c2cccnc12)c1ccco1,inactive: 83.8%
20,CC(C)Cn1c(=O)c2sccc2n2c(CCCC(=O)NCc3ccc4c(c3)OCO4)nnc12,inactive: 75.5%
21,CC(C)[C@H](Cn1nc(-c2ccc(F)c(F)c2)ccc1=O)NC(=O)c1ccc(=O)[nH]n1,inactive: 108%
22,O=[N+]([O-])c1ccc2[nH]c(SCc3cn4cccnc4n3)nc2c1,inactive: 33.2%
